In patent US20260242353A1, “HETEROARYL DERIVATIVES AS DDRs INHIBITORS” (CHIESI FARMACEUTICI S.P.A., priority 2022, published 2026):
Structures were worked out from names or drawings and are uncertain.

By UniProt entry, the sequences of proteins in these tests, tags left out. Residues count along the entry.
UniProt Q16832, 22-855 limits assumed: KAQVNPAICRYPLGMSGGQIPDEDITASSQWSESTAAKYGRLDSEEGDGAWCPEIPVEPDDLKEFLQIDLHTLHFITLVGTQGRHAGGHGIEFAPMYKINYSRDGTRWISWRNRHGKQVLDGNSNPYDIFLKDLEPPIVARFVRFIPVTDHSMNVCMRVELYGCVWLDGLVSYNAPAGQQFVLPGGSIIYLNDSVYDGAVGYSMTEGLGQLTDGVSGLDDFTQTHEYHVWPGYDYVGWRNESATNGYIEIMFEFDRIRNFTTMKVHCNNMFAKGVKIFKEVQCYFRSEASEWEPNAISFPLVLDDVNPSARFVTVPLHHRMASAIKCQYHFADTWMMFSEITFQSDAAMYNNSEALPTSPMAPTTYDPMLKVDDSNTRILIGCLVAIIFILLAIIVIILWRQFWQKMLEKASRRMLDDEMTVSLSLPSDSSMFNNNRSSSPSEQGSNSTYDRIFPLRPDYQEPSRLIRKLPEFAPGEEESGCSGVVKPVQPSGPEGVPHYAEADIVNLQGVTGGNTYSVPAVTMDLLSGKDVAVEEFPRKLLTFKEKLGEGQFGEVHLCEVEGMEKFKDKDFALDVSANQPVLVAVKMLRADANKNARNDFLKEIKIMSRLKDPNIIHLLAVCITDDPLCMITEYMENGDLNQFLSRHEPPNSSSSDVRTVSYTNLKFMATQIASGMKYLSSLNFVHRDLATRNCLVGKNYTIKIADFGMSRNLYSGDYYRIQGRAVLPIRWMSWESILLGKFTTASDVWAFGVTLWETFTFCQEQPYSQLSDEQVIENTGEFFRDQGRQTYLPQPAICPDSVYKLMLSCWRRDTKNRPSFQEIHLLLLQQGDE
UniProt Q08345, 19-913 limits assumed: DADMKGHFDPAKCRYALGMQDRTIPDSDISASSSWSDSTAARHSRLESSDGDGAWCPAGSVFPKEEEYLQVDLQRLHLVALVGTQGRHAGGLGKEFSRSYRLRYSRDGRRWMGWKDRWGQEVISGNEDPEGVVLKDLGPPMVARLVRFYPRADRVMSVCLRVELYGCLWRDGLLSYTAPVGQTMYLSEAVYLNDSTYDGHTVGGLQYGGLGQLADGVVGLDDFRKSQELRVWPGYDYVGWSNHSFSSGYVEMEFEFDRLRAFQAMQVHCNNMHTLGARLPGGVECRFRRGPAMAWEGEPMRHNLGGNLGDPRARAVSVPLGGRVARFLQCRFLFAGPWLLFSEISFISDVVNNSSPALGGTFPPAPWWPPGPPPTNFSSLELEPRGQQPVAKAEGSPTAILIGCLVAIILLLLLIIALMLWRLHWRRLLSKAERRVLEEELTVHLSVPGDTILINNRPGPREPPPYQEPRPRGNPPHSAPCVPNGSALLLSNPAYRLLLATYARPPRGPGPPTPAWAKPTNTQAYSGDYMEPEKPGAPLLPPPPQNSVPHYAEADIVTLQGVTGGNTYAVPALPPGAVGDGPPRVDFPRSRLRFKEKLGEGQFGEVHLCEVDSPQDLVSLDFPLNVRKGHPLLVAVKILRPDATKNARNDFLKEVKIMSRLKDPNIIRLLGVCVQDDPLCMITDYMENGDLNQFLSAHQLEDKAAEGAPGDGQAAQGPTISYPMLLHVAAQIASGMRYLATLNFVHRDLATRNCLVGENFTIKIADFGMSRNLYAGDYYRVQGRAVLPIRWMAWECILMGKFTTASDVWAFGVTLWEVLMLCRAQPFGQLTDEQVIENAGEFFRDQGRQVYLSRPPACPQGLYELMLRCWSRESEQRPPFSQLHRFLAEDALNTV

Columns and labels:
DDR2 = DDR2 (Homo sapiens, UniProt Q16832); assay: LanthaScreen Europium Kinase Binding assay, DDR2; conditions: read-out: Ki DDR2; 5 nM DDR2, 10 nM Kinase Tracer 178, 1 h at rt; Ki from IC50 by Cheng-Prusoff
Method: (§1) DDR1 and DDR2 binding assays were performed using Life Technologies LanthaScreen™ Europium Kinase Binding assay. The compounds were incubated with 5 nM DDR1 (Carna Biosciences) or 5 nM DDR2 (Life Technologies) for 1 h at rt in white 384-well OptiPlate (PerkinElmer), containing 20 nM or 10 nM Kinase Tracer 178 respectively and 2 nM Europium labelled anti-GST antibody (Life Technologies) in assay buffer (50 mM HEPES pH 7.5, 10 mM MgCI2, 1 mM EGTA and 0.01% BRIJ35). The ratio of fluorescence emission 665 nm/615 nm after excitation at 340 nm was obtained using the Tecan Spark 20M plate reader. IC50 values were determined in GraphPad Prism 7.0 software, using 4 parameter model: log(inhibitor) vs. response. IC50 values were converted in Ki using the Cheng-Prusoff equation (Ki=IC50/(1+[Tracer]/Kd).

DDR1 = DDR1 (Homo sapiens, UniProt Q08345); assay: LanthaScreen Europium Kinase Binding assay, DDR1; conditions: read-out: Ki DDR1; 5 nM DDR1, 20 nM Kinase Tracer 178, 1 h at rt; Ki from IC50 by Cheng-Prusoff
Method: as §1

| SMILES | Ki (DDR2) [nM] | Ki (DDR1) [nM] |
| --- | --- | --- |
| Cc1ccc(C(=O)Nc2cncc(C(F)(F)F)c2)cc1[C@@H]1CCN(c2nccnc2N)C1 | < 5 | < 5 |
| Cc1ccc(C(=O)Nc2cncc(C(F)(F)F)c2)cc1[C@@H]1CCN(c2cnc3cnc(N4CCN(C)CC4)cn23)C1 | 5 to 25 | < 5 |
| Cc1ccc(C(=O)Nc2cncc(OC(F)(F)F)c2)cc1[C@@H]1CCN(c2cnn3cccnc23)C1 | 5 to 25 | < 5 |
| Cc1ccc(C(=O)Nc2cncc(C(F)(F)F)c2)cc1[C@@H]1CCN(c2cncnc2)C1 | < 5 | < 5 |
